# ± gives the standard deviation. This is one part of the list. Many of these values have a large error.
# Tested on: EfPiwi piRISC loaded with L1MC piRNA (26 nt)
# Assay: pre-steady-state target cleavage rate (min^-1); guide: L1MC piRNA 5'p-UAACUAAAUACUAUGCAAGCUGUAGG; MIWI and MILI are mouse PIWI proteins and EfPiwi is from a freshwater sponge; tags in brackets are library labels; higher = faster piRNA-guided slicing of the target
# Settings: auxiliary factor: none (no Gtsf1)
# In short: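 Sequencing of uncleaved targets, normalised to depth and to weakly complementary targets, was the readout of this Cleave-'n-Seq assay. A transcribed, DNA-blocked target RNA library (0.1 nM) was mixed with 1 nM active affinity-purified piRISC carrying one synthetic guide, with or without 500 nM GTSF1 partner protein, in HEPES–potassium acetate buffer at 33 °C for 0–8 or 0–960 min. Three trials were pooled, k3 was capped at 0.0001 min^-1, and a burst-and-steady-state fit gave the pre-steady-state cleavage rate.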
row,Sequence,pre-steady-state target cleavage rate
1,UCCUGGAUGUCGAACGUAUCUAUCUUAGUUA,< 0.0001
2,UCCUGGUACAGCUUGCAAACUAUUUAGUUA,0.000789 ± 0.012
3,UCCUCCAACAGCUAGCAUAGUAUUUAGUUA,0.000574 ± 0.0083

# From the supplement of paper PMC10338343
